Measurements from the supplement of paper PMC10032668.
The list shows a part of the results. The list holds hits alone, and they repeat only in part.

Amino acid sequences for entries named in this document (tags omitted).
AARS, P49588, UniProt P49588, whole entry: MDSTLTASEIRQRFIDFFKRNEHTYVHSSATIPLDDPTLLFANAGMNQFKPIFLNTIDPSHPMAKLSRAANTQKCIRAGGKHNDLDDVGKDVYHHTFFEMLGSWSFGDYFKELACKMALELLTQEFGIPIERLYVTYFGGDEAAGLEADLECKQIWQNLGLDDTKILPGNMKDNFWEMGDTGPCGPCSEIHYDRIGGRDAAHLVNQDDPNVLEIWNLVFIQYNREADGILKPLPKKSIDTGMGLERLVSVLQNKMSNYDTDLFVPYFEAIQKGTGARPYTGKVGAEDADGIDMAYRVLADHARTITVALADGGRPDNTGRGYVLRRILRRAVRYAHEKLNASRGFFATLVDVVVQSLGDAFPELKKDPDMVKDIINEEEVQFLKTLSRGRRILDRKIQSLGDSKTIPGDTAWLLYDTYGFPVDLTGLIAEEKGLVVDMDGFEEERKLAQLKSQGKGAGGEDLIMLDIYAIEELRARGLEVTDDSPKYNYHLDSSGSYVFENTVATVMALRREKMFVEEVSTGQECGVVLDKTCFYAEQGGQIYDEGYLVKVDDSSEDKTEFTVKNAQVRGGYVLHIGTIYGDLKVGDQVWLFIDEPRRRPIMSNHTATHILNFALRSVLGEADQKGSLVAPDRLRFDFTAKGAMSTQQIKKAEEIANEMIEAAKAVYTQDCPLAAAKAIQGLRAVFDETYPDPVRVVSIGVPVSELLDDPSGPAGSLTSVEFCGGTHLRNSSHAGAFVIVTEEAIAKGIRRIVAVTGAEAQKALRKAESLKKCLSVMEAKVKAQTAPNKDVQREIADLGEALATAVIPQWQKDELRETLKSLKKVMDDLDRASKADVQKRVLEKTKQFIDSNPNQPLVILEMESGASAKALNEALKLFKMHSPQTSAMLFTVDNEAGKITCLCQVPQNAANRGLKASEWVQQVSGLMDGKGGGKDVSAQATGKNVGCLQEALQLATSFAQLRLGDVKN
CCNB1, P14635, UniProt P14635, whole entry: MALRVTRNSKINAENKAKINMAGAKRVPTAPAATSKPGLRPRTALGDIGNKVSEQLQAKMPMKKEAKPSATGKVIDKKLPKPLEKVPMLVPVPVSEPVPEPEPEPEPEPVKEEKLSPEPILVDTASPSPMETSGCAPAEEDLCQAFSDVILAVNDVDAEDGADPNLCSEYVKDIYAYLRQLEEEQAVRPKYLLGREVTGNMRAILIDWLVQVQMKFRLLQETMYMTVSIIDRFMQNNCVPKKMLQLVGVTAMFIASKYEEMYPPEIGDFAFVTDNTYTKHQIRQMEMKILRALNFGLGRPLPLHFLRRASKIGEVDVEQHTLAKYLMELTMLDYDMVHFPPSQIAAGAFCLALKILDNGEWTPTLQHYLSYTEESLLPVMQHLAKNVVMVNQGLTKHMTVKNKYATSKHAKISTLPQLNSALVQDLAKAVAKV
CSNK2B, P67870, UniProt P67870, whole entry: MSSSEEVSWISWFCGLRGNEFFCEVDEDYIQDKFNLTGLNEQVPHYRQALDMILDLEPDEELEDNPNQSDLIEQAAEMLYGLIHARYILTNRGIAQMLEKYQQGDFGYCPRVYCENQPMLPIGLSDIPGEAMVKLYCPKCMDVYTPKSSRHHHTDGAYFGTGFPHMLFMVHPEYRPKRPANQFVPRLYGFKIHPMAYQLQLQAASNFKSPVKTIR
EIF3A, Q14152, UniProt Q14152, whole entry: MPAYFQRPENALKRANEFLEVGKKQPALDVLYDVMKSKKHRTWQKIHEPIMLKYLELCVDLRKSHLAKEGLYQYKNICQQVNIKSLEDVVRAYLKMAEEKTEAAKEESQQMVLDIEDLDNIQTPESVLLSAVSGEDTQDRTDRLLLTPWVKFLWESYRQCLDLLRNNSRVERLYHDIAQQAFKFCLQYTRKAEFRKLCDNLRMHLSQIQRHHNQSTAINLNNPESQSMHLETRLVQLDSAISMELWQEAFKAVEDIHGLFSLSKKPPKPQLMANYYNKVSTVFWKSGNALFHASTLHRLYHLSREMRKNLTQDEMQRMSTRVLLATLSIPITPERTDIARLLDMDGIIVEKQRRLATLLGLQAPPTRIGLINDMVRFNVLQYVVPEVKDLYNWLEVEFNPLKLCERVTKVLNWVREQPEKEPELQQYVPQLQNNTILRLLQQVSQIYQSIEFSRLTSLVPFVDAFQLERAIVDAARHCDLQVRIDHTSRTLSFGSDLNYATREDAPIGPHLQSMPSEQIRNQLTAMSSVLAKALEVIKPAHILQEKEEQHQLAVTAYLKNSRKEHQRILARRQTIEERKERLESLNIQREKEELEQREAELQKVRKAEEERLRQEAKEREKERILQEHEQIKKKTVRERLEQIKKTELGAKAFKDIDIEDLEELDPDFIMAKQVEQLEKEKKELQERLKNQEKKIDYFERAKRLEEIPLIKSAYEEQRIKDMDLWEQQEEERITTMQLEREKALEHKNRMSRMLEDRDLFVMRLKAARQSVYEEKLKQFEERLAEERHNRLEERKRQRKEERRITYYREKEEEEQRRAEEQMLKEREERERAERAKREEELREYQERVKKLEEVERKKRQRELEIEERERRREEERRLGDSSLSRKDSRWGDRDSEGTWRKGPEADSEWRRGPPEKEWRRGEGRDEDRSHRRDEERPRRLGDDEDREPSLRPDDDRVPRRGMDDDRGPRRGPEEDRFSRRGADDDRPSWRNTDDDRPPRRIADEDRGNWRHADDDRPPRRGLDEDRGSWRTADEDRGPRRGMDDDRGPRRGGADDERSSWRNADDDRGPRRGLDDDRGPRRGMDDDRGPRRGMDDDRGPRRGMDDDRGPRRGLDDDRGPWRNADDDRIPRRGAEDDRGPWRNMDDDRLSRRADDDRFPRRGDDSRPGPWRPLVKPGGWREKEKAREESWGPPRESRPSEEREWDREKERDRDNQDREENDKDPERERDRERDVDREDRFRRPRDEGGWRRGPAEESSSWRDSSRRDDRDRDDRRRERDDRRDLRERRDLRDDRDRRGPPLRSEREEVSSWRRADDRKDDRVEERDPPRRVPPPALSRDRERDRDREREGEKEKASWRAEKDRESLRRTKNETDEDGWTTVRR
EIF4B, P23588, UniProt P23588, whole entry: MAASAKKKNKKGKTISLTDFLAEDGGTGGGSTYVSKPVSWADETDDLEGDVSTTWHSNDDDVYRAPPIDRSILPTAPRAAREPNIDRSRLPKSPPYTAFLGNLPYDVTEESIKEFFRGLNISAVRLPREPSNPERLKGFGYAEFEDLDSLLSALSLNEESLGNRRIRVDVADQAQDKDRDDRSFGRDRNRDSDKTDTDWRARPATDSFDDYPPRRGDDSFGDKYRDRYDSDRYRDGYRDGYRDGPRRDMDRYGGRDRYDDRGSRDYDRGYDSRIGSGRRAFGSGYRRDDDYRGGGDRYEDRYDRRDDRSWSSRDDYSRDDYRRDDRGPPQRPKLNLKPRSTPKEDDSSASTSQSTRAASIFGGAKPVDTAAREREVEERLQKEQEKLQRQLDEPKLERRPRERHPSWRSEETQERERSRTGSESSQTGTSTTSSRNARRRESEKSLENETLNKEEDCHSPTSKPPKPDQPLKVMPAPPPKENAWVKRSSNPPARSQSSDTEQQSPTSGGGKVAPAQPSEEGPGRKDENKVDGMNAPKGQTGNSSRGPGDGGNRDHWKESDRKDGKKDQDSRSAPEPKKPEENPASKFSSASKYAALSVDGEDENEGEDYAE
FLNA, P21333, UniProt P21333, whole entry: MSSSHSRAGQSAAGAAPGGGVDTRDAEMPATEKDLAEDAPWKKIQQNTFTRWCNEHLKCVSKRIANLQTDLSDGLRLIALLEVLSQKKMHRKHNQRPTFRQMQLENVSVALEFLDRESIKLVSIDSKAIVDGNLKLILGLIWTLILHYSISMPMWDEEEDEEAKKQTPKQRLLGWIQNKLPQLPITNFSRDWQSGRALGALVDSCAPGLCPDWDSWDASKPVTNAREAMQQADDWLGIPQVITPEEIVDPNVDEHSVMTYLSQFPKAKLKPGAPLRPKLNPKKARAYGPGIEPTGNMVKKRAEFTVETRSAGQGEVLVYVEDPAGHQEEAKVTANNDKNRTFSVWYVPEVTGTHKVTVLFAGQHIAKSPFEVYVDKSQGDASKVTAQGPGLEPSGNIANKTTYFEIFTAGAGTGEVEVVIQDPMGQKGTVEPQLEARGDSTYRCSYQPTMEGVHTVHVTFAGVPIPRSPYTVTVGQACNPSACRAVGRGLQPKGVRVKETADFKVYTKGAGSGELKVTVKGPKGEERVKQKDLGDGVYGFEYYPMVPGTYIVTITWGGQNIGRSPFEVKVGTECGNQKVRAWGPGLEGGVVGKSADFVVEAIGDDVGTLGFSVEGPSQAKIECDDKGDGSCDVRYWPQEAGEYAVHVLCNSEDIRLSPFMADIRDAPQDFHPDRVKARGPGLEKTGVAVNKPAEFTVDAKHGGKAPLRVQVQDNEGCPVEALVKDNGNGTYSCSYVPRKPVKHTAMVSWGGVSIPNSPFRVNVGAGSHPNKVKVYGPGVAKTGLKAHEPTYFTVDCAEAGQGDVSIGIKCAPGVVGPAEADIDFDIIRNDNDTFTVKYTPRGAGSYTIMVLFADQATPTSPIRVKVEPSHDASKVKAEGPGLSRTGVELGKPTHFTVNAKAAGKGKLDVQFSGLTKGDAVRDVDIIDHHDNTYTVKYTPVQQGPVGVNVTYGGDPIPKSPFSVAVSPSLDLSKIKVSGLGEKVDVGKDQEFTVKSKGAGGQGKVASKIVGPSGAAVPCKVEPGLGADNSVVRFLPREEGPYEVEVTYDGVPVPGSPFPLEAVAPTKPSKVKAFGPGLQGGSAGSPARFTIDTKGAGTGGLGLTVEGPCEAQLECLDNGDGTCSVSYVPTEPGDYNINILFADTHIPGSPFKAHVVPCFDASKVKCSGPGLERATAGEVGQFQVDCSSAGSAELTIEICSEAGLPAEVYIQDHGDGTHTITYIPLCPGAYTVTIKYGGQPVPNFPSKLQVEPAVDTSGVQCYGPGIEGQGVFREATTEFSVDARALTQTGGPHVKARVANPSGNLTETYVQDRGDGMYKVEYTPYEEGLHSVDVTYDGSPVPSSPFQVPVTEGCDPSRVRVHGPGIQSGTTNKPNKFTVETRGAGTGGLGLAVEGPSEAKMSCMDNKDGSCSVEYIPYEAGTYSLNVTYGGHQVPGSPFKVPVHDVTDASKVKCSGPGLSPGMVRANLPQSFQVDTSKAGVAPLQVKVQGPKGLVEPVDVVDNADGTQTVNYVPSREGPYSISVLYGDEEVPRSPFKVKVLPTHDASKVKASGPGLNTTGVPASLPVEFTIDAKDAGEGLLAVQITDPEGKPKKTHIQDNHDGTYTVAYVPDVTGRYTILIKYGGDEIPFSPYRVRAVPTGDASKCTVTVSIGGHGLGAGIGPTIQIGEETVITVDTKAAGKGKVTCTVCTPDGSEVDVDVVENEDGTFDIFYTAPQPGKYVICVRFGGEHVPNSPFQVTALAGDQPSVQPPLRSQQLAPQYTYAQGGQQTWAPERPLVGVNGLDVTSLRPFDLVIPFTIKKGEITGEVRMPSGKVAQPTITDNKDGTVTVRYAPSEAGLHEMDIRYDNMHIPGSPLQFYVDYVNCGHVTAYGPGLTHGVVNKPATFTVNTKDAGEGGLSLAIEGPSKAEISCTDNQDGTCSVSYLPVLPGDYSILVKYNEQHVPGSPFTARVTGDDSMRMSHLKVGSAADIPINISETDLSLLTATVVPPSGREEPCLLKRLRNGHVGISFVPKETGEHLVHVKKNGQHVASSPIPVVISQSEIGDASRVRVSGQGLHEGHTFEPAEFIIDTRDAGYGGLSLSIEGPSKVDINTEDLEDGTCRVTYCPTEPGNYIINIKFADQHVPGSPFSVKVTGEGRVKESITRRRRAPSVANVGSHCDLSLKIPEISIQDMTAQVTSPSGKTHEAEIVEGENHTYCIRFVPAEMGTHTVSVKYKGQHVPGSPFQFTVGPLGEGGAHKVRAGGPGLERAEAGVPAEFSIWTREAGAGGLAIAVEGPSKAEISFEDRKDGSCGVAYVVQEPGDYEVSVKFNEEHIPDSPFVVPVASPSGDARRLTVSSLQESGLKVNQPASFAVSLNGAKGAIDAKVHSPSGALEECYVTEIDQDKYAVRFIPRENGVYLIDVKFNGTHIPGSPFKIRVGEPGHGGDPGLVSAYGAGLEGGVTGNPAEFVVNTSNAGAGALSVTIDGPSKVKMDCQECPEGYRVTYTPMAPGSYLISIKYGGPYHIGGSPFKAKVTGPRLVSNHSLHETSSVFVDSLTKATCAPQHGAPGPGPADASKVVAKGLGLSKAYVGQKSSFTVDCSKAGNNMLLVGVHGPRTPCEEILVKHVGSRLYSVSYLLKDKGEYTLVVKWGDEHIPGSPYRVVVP
PPP1CB, P62140, UniProt P62140, whole entry: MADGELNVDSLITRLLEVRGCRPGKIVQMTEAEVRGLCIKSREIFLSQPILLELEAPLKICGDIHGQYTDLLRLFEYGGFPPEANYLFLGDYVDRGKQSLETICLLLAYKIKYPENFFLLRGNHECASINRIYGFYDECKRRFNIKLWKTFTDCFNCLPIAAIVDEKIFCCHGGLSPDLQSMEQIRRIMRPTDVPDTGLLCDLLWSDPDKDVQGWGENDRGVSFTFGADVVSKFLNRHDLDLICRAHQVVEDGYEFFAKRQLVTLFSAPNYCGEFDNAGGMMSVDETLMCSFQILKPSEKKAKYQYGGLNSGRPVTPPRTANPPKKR

Assays:
Assay in all cases: PRISMA enrichment of interactor (LFQ) in peptide spot vs all other peptide spots (log2 fold change); higher = stronger / more specific binding of the interactor to the peptide
[1] = biological target: AARS, P49588
Protocol: (§1)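 PRISMA: 15-aa overlapping tiles (offset 8 aa) of 60 microproteins, plus SOS1/GLUT1 control peptides, were spot-synthesized on cellulose membranes in triplicate. Membranes were incubated with benzonase-treated HEK293T lysate, and bound proteins were identified by LC-MS/MS with LFQ. Enrichment is the log2 fold change of each protein in one spot versus all other spots. Only interactors passing the significance cutoff are listed.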

[2] = biological target: ACLY, P53396
Protocol: as §1

[3] = biological target: ACTL6A, O96019
Protocol: as §1

[4] = biological target: ATP6V1C1, P21283
Protocol: as §1

[5] = biological target: BAZ1B, Q9UIG0
Protocol: as §1

[6] = biological target: CCNB1, P14635
Protocol: as §1

[7] = biological target: CDC5L, Q99459
Protocol: as §1

[8] = biological target: CEBPZ, Q03701
Protocol: as §1

[9] = biological target: CSNK2B, P67870
Protocol: as §1

[10] = biological target: DDX6, P26196
Protocol: as §1

[11] = biological target: DNM2, P50570
Protocol: as §1

[12] = biological target: DSG2, Q14126
Protocol: as §1

[13] = biological target: ECI2, O75521
Protocol: as §1

[14] = biological target: EEF1B2, P24534
Protocol: as §1

[15] = biological target: EIF3A, Q14152
Protocol: as §1

[16] = biological target: EIF4B, P23588
Protocol: as §1

[17] = biological target: FBXO45, P0C2W1
Protocol: as §1

[18] = biological target: FLNA, P21333
Protocol: as §1

[19] = biological target: FMR1, Q06787
Protocol: as §1

[20] = biological target: GPD1L, Q8N335
Protocol: as §1

[21] = biological target: GTF3C1, Q12789
Protocol: as §1

[22] = biological target: HACD2, Q6Y1H2
Protocol: as §1

[23] = biological target: NBAS, A2RRP1
Protocol: as §1

[24] = biological target: NOL12, Q9UGY1
Protocol: as §1

[25] = biological target: ODF2, Q5BJF6
Protocol: as §1

[26] = biological target: PPP1CB, P62140
Protocol: as §1

[27] = biological target: PRPF8, Q6P2Q9
Protocol: as §1

[28] = biological target: PSMB1, P20618
Protocol: as §1

[29] = biological target: RBM33, Q96EV2
Protocol: as §1

[30] = biological target: RECQL5, O94762
Protocol: as §1

[31] = biological target: RIOK1, Q9BRS2
Protocol: as §1

[32] = biological target: RTRAF, Q9Y224
Protocol: as §1

[33] = biological target: SBDS, Q9Y3A5
Protocol: as §1

[34] = biological target: TAF15, Q92804
Protocol: as §1

[35] = biological target: TMED1, Q13445
Protocol: as §1

[36] = biological target: TRRAP, Q9Y4A5
Protocol: as §1

[37] = biological target: TWNK, Q96RR1
Protocol: as §1

[38] = biological target: USP34, Q70CQ2
Protocol: as §1

[39] = biological target: WTAP, Q15007
Protocol: as §1

[40] = biological target: YTHDC2, Q9H6S0
Protocol: as §1

## LWRLDSKIESRSYMF [RP3-332B22.1]
[1]
  PRISMA enrichment of interactor (log2): 5.25
[2]
  PRISMA enrichment of interactor (log2): 6.16
[3]
  PRISMA enrichment of interactor (log2): 5.22
[4]
  PRISMA enrichment of interactor (log2): 4.2
[5]
  PRISMA enrichment of interactor (log2): 6.67
[6]
  PRISMA enrichment of interactor (log2): 7.71
[7]
  PRISMA enrichment of interactor (log2): 5.29
[8]
  PRISMA enrichment of interactor (log2): 4.76
[9]
  PRISMA enrichment of interactor (log2): 5.44
[10]
  PRISMA enrichment of interactor (log2): 5.12
[11]
  PRISMA enrichment of interactor (log2): 7.28
[12]
  PRISMA enrichment of interactor (log2): 4.97
[13]
  PRISMA enrichment of interactor (log2): 4.54
[14]
  PRISMA enrichment of interactor (log2): 5.82
[15]
  PRISMA enrichment of interactor (log2): 5.01
[16]
  PRISMA enrichment of interactor (log2): 4.56
[17]
  PRISMA enrichment of interactor (log2): 7.1
[18]
  PRISMA enrichment of interactor (log2): 5.85
[19]
  PRISMA enrichment of interactor (log2): 5.1
[20]
  PRISMA enrichment of interactor (log2): 5.82
[21]
  PRISMA enrichment of interactor (log2): 4.84
[22]
  PRISMA enrichment of interactor (log2): 5.28
[23]
  PRISMA enrichment of interactor (log2): 3.9
[24]
  PRISMA enrichment of interactor (log2): 5.19
[25]
  PRISMA enrichment of interactor (log2): 6.48
[26]
  PRISMA enrichment of interactor (log2): 4.95
[27]
  PRISMA enrichment of interactor (log2): 5.61
[28]
  PRISMA enrichment of interactor (log2): 5.22
[29]
  PRISMA enrichment of interactor (log2): 4.24
[30]
  PRISMA enrichment of interactor (log2): 5.23
[31]
  PRISMA enrichment of interactor (log2): 12.2
[32]
  PRISMA enrichment of interactor (log2): 5.57
[33]
  PRISMA enrichment of interactor (log2): 6.36
[34]
  PRISMA enrichment of interactor (log2): 5.08
[35]
  PRISMA enrichment of interactor (log2): 5.35
[36]
  PRISMA enrichment of interactor (log2): 5.04
[37]
  PRISMA enrichment of interactor (log2): 7.88
[38]
  PRISMA enrichment of interactor (log2): 4.86
[39]
  PRISMA enrichment of interactor (log2): 6.71
[40]
  PRISMA enrichment of interactor (log2): 6.6
